Among all 400,000 compounds or so, about 13,000 (3.2%) were called active. The shares of active, inactive and inconclusive entries below differ from those in the screen. Calls follow the shape of the dose curve; as a rule, active = well fitted cell-killing curve with a large enough effect; inconclusive = small, poorly fitted or top-dose-only effect, or effect the other way; inactive = flat fitted curve, though single readings scatter. Potencies beside an inconclusive call are fits to weak or partial responses and may not hold up. Some structures have more than one record in an assay (separate samples or runs), and their calls can disagree.
Assay: qHTS assay for MDR1-selective chemotherapeutics: Primary screen using the drug-selected MDR subline cells KB-V1; also: nearly all actives have a fitted effect of over 60% in size
Conditions: KB-V1 MDR cells viability, CellTiter-Glo, 72 h; series mostly up to 46.1 µM
How it was run: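 Drug-selected KB-V1 cells, grown in DMEM lacking phenol red with 10% FBS, receive compound titrations; after three days at 37 degrees C, surviving cell ATP is quantified by CellTiter-Glo luminescence and responses normalized and curve-fitted.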
With `CCc1cccc(-n2c(C)nc3c(cnn3-c3ccc(Cl)cc3)c2=O)c1` the Potency was inconclusive: 20.6 µM [cytotoxic, single point].
In the case of `O=C(/C=C/c1c(Cl)cccc1Cl)NCc1ccco1`, the Potency is reported as inconclusive: 25.9 µM [rising, single point].
With `Cc1cccc2cc(-c3nc4c(C)cccn4c3NCc3ccco3)c(=O)[nH]c12` the Potency was inconclusive: 18.4 µM [cytotoxic, partial curve, poor fit].
In the case of `O=[N+]([O-])c1ccccc1-c1ccc(/C=N/n2cnnc2)o1`, the Potency is reported as inconclusive: 23.1 µM [cytotoxic, single point].
In the case of `N#C/C(=C\c1ccncc1)c1nc2ccccc2o1`, the Potency is reported as “inactive”.
In the case of `O=C(O)c1cccc(COc2ccccc2Cl)c1`, the Potency is reported as inconclusive: 16.4 µM [cytotoxic, partial curve].
In the case of `CCOC(=O)c1c(-c2ccccc2)oc2ccc(N(C(C)=O)S(=O)(=O)c3cc(C)ccc3C)cc12`, the Potency is reported as inconclusive: 16.4 µM [cytotoxic, partial curve, poor fit].
With `COC(=O)c1c(C)oc2ccc(N(C(=O)c3ccncc3)S(=O)(=O)c3ccc(C)cc3C)cc12` the Potency was inconclusive: 29.1 µM [cytotoxic, single point].
With `CCC(=O)c1cc(Br)ccc1OCC(=O)N1CCN(S(=O)(=O)c2ccccc2)CC1` the Potency was “inactive”.
With `CCN(CC)c1ccc(NC(=O)c2ccco2)c(C)c1` the Potency was “inactive”.
For `Cc1cc(C)c2nc(-c3ccncc3)cc(C(=O)N3CCN(Cc4ccccc4Cl)CC3)c2c1`, the Potency was inconclusive: 14.6 µM [cytotoxic, partial curve, poor fit].
With `CN1CCC(OC(=O)COc2ccc(Cl)cc2Cl)CC1` the Potency was inconclusive: 8.2 µM [rising, partial curve, poor fit].
For `NS(=O)(=O)c1ccc(NC(=S)NC(=O)/C=C/c2ccco2)cc1`, the Potency was “inactive”.
With `Cc1cc(Cl)cc2sc(=S)[nH]c12` the Potency was “inactive”.
For `O=C(CN(C(=O)CCC(=O)Nc1ccccn1)c1cccc(F)c1)NCc1ccc2c(c1)OCO2`, the Potency was “inactive”.
With `CN=C1CC(SC)=C1c1ccc(C)cc1` the Potency was inconclusive: 29.1 µM [cytotoxic, single point].
In the case of `O=C(Nc1ccccc1N1CCCC1)c1ccccc1F`, the Potency is reported as inconclusive: 29.1 µM [cytotoxic, single point].
For `CC(C)(C)n1nnnc1C(CCc1ccccc1)N1CCN(C/C=C/c2ccccc2)CC1` (stereo not given), the Potency was inconclusive: 29.1 µM [cytotoxic, single point].
In the case of `CCOC(=O)C(C)Sc1ccc2nnc(-c3ccc(F)cc3)n2n1` (stereo not given), the Potency is reported as active: 14.6 µM.
For `CCOc1ccc(Br)cc1C(=O)N/N=C/c1c[nH]c2ccccc12`, the Potency was inconclusive: 20.6 µM [rising, single point].

Reference: PubChem BioAssay AID1347076 (National Center for Advancing Translational Sciences (NCATS), 2019)
Potency is read from the fitted curve at half-maximal effect.
